In patent EP2689855B1, “Modified micronization device and use thereof” (Oekomineral AG, priority 2012, dated 2014):
At least one structure is not confirmed: it was looked up by name or label, or the drawing left a doubt.

Assays:
[1] = Amorphous content / crystalline disorder by isothermal calorimetry (IC TAM 3); type: physicochemical; details: after seven repeated processes of micronization, blades of present invention (Figure 7)
Method: 1 kg of each sample of ursolic acid (98% purity, Sigma Aldrich) of an average particle size of 30 µm was micronized five times in devices having different hitting elements. The discs were cooled through a feeder opening with liquid nitrogen spraying to avoid overheating of the heat-sensitive substance.
The micronized samples were analyzed for particle size (Malvern MasterSizer 2000), while the extent of crystalline disorder of particles was quantified with isothermal calorimetry (IC TAM 3, TA instruments, USA). Data was recorded with proprietary software Digitam 4.2.

[2] = Particle size analysis (Malvern MasterSizer 2000) of micronized samples; type: physicochemical; details: after seven repeated processes of micronization, blades of present invention (Figure 7), 20 °C; starting 50 µm crystalline particles
Description: The influence of the shape of the blades on the efficiency of the micronization has been studied by the use of the micronization device shown in Figures 1 and 2 from the prior art of the following technical characteristics: • (i) diameter of discs (Ø) of micronizer was 370 mm; • (ii) number of layers of hitting elements (blades) on the discs was 3 on primary and 2 on secondary disc; • (iii) number of blades on each of wreaths of discs was 20/16 (outer/inner wreath) from one side; and 18/16 (outer/inner wreath) from the other side of the micronizer; • (iv) the rotation velocity was 10000 rpm;
1 kg of each sample of same zeolite clinoptilolite was micronized by using the device according to the prior art and three different hitting elements as depicted in figures 5, 6 and 8. The disintegrators are characterized by the following data: • 1. Plates formed according to US4406409 A (Figure 5; Micronization-1); • 2. Slightly curved and indented plates according to HR990263 A2 (Figure 6; Micronizationt-2); and • 3. The hitting elements according to the present invention (Figure 8; Micronization-3) […]
The micronized samples were analyzed for particle size (Malvern MasterSizer 2000), while the extent of crystalline disorder of particles was quantified with isothermal calorimetry (IC TAM 3, TA instruments, USA). Data was recorded with proprietary software Digitam 4.2. […]

Structure (SMILES): COc1cc(/C=C/c2ccc(O)cc2)cc(OC)c1 [Pterostilbene]
- amorphous surface ratio [1]: 34 % w/W
- Average particle size [2]: around 0.4 µm
